Reference: paper PMC12313994
These are yes or no findings as the source states them, for the method shown. Binding seen in cells or lysates may run through a third protein. Some binding calls cover weakened binding; strength is not graded here.

Chains of the proteins cited; added tags and fusions are not shown.
UniProt Q8IXI2: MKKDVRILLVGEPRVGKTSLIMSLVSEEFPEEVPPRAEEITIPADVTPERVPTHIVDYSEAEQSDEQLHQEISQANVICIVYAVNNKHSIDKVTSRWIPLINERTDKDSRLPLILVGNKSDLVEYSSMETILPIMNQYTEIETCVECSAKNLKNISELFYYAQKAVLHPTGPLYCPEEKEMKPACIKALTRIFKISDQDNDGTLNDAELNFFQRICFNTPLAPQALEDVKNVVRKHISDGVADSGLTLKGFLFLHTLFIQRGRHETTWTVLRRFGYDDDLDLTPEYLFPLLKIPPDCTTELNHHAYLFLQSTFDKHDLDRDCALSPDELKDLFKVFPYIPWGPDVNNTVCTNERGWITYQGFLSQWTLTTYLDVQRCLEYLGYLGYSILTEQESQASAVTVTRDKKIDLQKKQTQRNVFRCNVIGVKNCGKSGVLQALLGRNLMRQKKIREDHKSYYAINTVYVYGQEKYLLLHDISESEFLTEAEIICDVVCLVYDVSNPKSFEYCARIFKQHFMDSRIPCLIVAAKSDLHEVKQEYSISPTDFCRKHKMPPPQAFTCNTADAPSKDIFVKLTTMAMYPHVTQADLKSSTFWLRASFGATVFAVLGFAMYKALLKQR

Tests used:
[1] = molecular target: T1, TRAK2 (human (endogenous in hCMEC/d3)) (UniProt O60296); test: proximity ligation; Duolink PLA with anti-TRAK2 and anti-MIRO1 in fixed, permeabilised Wt or ΔTRAK2 ECs on CDM; control without primary antibody; both proteins <40 nm apart
T1 sequence: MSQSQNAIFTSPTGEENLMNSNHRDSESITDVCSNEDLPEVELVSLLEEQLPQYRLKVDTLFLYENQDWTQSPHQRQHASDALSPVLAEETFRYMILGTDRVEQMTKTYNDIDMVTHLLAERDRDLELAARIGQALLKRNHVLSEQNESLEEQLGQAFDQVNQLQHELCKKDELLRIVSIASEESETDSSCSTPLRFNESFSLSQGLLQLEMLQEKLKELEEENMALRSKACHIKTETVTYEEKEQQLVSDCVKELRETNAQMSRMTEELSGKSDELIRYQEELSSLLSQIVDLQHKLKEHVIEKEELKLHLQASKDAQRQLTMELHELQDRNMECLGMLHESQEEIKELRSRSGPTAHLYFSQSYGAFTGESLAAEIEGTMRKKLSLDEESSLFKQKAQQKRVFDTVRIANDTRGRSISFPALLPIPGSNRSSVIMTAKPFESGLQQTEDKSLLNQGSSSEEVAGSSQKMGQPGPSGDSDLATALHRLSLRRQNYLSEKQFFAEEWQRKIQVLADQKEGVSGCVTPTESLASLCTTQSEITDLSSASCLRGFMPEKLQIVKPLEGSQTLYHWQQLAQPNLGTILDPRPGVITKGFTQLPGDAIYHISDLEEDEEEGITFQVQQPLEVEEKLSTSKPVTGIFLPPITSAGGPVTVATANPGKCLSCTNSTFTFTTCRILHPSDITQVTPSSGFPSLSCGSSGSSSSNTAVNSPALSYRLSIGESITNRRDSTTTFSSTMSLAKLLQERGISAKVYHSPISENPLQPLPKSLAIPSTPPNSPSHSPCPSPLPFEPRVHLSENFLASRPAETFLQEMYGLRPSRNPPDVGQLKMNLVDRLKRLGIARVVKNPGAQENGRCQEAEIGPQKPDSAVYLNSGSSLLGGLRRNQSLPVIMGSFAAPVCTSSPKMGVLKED

[2] = molecular target: T1, TRAK2 (human (endogenous in hCMEC/d3)); test: co-IP; anti-TRAK2 or control IgG added to lysates of Wt or ΔTRAK2 ECs (NP-40 lysis buffer: 20 mM Tris-HCl pH 8, 137 mM NaCl, 10% glycerol, 1% Nonidet P-40, 2 mM EDTA), 4 °C overnight, Protein A/G magnetic beads; western blot for TRAK2 and MIRO1

MIRO1 (from UniProt Q8IXI2 1-618)
binding [1]: binds
binding [2]: binds
